In all, about 340,000 compounds went through this assay and about 170 (0.05%) were called active. The shares of active, inactive and inconclusive entries below differ from those in the screen. Calls come from the whole dose curve; as a rule, active = well fitted inhibition curve with a large enough effect in the signal ratio, with a control signal flat (not every such curve was filed as active); inconclusive = small, poorly fitted or top-dose-only effect, or effect the other way, or a change in a side signal; inactive = flat fitted curve, though single readings scatter; the % refers to the signal ratio. A potency beside an inconclusive call is a rough fit, not a confirmed value.
experiment: qHTS Assay to Find Inhibitors of Chronic Active B-Cell Receptor Signaling; conditions: ABC-DLBCL IkBa-CBG/CBR reporter, luminescence ratio (green luciferase fused to IkBa over red control in TMD8 lymphoma cells), 4 h; activity change, negative = inhibition: at 46.1 µM (top of the series);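 for activity change, negative = inhibition: plate controls were basal doxycycline-induced cells for no effect and cells given 10 µM MG132 for full effect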
Procedure, shortened: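 TMD8 ABC-DLBCL cells carrying doxycycline-inducible green luciferase fused to IkappaBalpha plus unfused red luciferase were exposed to compounds (up to 46 uM) for 4 hrs at 37C. Activity came from the overlap-corrected green/red luminescence ratio.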
Potency is the fitted concentration of half-maximal effect.

Row | Structure (SMILES) | activity change, negative = inhibition | Potency
1 | COc1ccc(Cl)cc1NC(=O)C[n+]1cccc(C)c1 | inconclusive: 0.591% | –
2 | COc1ccc(COC(=O)c2cc([N+](=O)[O-])ccc2N2CCOCC2)cc1F | – | inconclusive: 5.8 nM [falling, full curve, poor fit]
3 | CN(C(=O)COC(=O)CSc1ccc([N+](=O)[O-])cc1)C1CCS(=O)(=O)C1 (stereo not given) | inactive: -20.2% | –
4 | Nc1nnn(CC(=O)N/N=C/c2cccc(Cl)c2)n1 | inconclusive: 5.65% | –
5 | CNC(=O)c1cc(C(=O)c2ccc(Cl)cc2)c[nH]1 | inconclusive: 3.63% | –
6 | CCn1c(SCC(=O)NC2CCCC2)nnc1C(C)NC(=O)c1ccccc1Br (stereo not given) | inconclusive: 1.99% | –
7 | COc1ccc2nc(N=Nc3ccc(N(C)C)cc3)sc2c1 | – | inconclusive: 1410 nM [falling, full curve, poor fit]
8 | O=C(N/N=C/c1ccccc1OC(=O)c1ccc2c(c1)OCO2)c1ccccc1 | inconclusive: -13.4% | –
9 | Cc1cc(C(=O)Nc2ccc(OCc3ccccc3)cc2)c(C)o1 | inconclusive: -0.756% | –
10 | COc1ccc(S(=O)(=O)Nc2ccc3c(c2)C(=O)N([C@H](C)CO)C[C@H](C)[C@@H](CN(C)S(=O)(=O)c2cccs2)O3)cc1 | inconclusive: -2.79% | –
11 | Cc1cc(C)c(S(=O)(=O)NCc2ccc3c(c2)cc(C)n3C)c(C)c1 | inactive: 5.6% | –
12 | O=C(C1=C(O)C(=O)N(CC2CCCO2)C1c1ccccc1Cl)c1ccco1 (stereo not given) | inconclusive: 0.89% | –
13 | CCOC(=O)C1CN(S(=O)(=O)c2ccc(C)cc2)CCN1S(=O)(=O)c1ccc(C)cc1 (stereo not given) | inconclusive: 4.48% | –
14 | Cc1nc(N2CCN(c3ccccn3)CC2)c2c(C)c(C(=O)Nc3ccc(F)cc3)sc2n1 | – | inconclusive: 10000 nM [rising, partial curve, poor fit]
15 | CC(CCc1ccccc1)NC(=O)CN1CCN(c2ccc(O)cc2)CC1 (stereo not given) | inconclusive: 2.14% | –
16 | CCOC(=O)c1cccc(NC(=O)c2cc3ccccc3o2)c1 | – | inconclusive: 15800 nM [falling, partial curve]
17 | O=C(O)CCN1C(=O)/C(=C\c2cccc(OCc3ccccc3)c2)SC1=S | – | inconclusive: 2820 nM [falling, full curve, poor fit]
18 | COc1ccc(C2NCCc3c2[nH]c2ccccc32)cc1COc1ccc(F)cc1 (stereo not given) | inconclusive: 8.02% | –
19 | N#C/C(=N\Nc1ccc(Cl)cc1)C(N)=S | – | inconclusive: 35500 nM [falling, single point]
20 | O=C(O)CCCc1ccc2c(c1)CCc1ccccc1-2 | – | inconclusive: 5.17 nM [activator, full curve, poor fit]

Retrieved by structure from the entries so far (two):
Row | Structure (SMILES) | activity change, negative = inhibition | Potency
1 | COc1ccc(Cl)cc1NC(=O)C[n+]1cccc(C)c1 | inconclusive: 0.591% | –
10 | COc1ccc(S(=O)(=O)Nc2ccc3c(c2)C(=O)N([C@H](C)CO)C[C@H](C)[C@@H](CN(C)S(=O)(=O)c2cccs2)O3)cc1 | inconclusive: -2.79% | –

— PubChem BioAssay AID493014 (National Center for Advancing Translational Sciences (NCATS), 2011)
